In article PMC5703881:
For at least one entry, the source does not settle the construct or the ends of the probe.

Test system: 71F12 Fab (human (acute SLE patient))
Assay: crystal structure
Settings: 2.10 A, trinucleotide T0, T-1, T-2 visible; recombinant protein; single-stranded DNA

TTTTT [5-mer T5]
binding result: binds
